Assay results taken from patent US9872868B2, “Mitochondrially-targeted electrophilic compounds and methods of use for the treatment of cancer” (UAB Research Foundation, priority 2013, dated 2018).
At least one compound was matched to its structure with a doubt left.

Experiments:
MDA-MB 231 cells = experiment: Mitochondrial bioenergetic assay, Extracellular Flux Analyzer XF-24 (OCR); type: cell-based, human; conditions: 5 μM, 4 h, 0.5% serum containing medium, vs EtOH vehicle
Protocol: FIG. 3. Bioenergetic response of breast cancer cells to MTE. Panel A. A schematic representation of the mitochondrial bioenergetic assay in an Extracellular Flux Analyzer XF-24 (Seahorse Biosciences). Panel A: Sequential injections of oligomycin, FCCP, and Antimycin A allow determination of the component mitochondrial bioenergetic parameters. Panel B. MDA-MB 231 cells were treated for 4 h in 0.5% serum containing medium with EtOH vehicle, IBTP (5 μM), or BTPP (5 μM) and the OCR measured over time. Panel C. Comparison of basal OCR, ATP-dependent OCR, and reserve capacity (RC) with veh and IBTP treatments. Each point is the mean of a minimum of 3 determinations±SEM, from at least 2 independent experiments. Asterisks represent p<0.05. Recent work has shown that MTEs can modulate cell signaling, and depending upon the specific MTE, may do so without causing overt cellular toxicity to cancer cells or normal cells (12). MTEs are small molecules which consist of a triphenylphosphonium lipophilic cationic moiety and a leaving group such as iodide, which renders the adjacent carbon electrophilic. […] We have previously shown reserve capacity is indicative of the cells' ability to withstand a “second hit” of oxidative stress (7).

[1] = tested on: MDA-MB 231 breast cancer cells; experiment: Cell adhesion (reattachment after scraping), viable non-adherent cells counted with trypan blue; type: cell-based, human; conditions: 10 μM, 24 h
Protocol: (§1) FIG. 7. Two ×10^5 cells/plate were plated on a 6-well plate, 24 hrs after plating cells were starved in 0.5% FCS containing media for another 24 hrs. Cells were then treated for another 24 hrs with increasing doses of IBTP or the non-reactive analog butyl-triphenylphosphonium (BTPP) as a control. Cells were scraped and made into single cell suspension. Cells were counted and plated in 100-mm tissue culture plate. After 24 hrs the media is collected, centrifuged and the viable cells were counted using trypan blue.
FIG. 2. Two×10^5 cells/plate were plated on a 6-well plate, 24 hrs after plating cells were starved in 0.5% FCS containing media for another 24 hrs.
as §1, with “Cells” for “FIG. 7. Two ×10^5 cells/plate were plated on a 6-well plate, 24 hrs after plating cells were starved in 0.5% FCS containing media for another 24 hrs. Cells”

## CCCC[P+](c1ccccc1)(c1ccccc1)c1ccccc1 [bTPP, butyl triphenylphosphonium, reference compound]
MDA-MB 231 cells
  basal OCR: decrease basal OCR
  reserve capacity (RC): but not bTPP
[1]
  reattachment to tissue culture plates after scraping: no changes in reattachment
